Assay results from patent US20220402883A1, “COMPOUNDS AND METHODS FOR MODULATING RNA FUNCTION” (Arrakis Therapeutics, Inc., priority 2016, published 2022).

test system: 41CAG and 17CAG sequences; assay: NMR group epitope mapping (STD); type: binding; conditions: both RNA constructs; 10 mM Tris pH 8.0, 5 mM DTT, 5% DMSO-d6; T=288.1 K

| Structure (SMILES) | epitope mapping (scaled STD effect): protons in closer proximity to RNA |
| --- | --- |
| OCc1cccc(-c2cccnc2)c1 [HP-AC008002-E01] | protons of the pyridine ring are in closer proximity to RNA than the benzene ring |
| Cc1nn(-c2ccccc2)nc1CN [HP-AC008001-E02] | aromatic protons closest to the heterocycle are in closer proximity to RNA protons |
| CC(O)CNCc1ccc(-c2ccccc2)o1 (stereo not shown) [HP-AT005003-C03] | protons of the furan moiety are in closer proximity to RNA protons than the phenyl |
| O=C(c1ccc(Cl)cc1)N1CCN(c2ccc([N+](=O)[O-])c3ncccc23)CC1 [CPNQ, reference compound] | protons of the chlorophenyl moiety are in closer proximity to RNA than the nitroquinoline |
